# Assay: solid-state NMR, 2H spin-lattice relaxation rate (R1) of frozen D2O
# Details: 16 mM frozen hydrogel, total overall proton concentration 479 mM
row,Structure (SMILES),R1 of frozen D2O [s⁻¹]
1,"CCCCCCCCNC(=O)[C@H](O)[C@@H](O)[C@@H](O)[C@H](O)CO [compound 6, N-octyl-D-galactonamide]",0.030 ± 0.001

# Same assay, conditions: corrected to total overall proton concentration of 1234 mM (compounds 3, 4: 44 mM; compound 5: 42 mM frozen hydrogel; sugars: 103 mM)
row,Structure (SMILES),R1 of frozen D2O [s⁻¹]
1,"O=C[C@H](O)[C@@H](O)[C@@H](O)[C@H](O)CO [D-galactose, reference compound]",0.0154 ± 0.0003
2,"O=C[C@H](O)[C@@H](O)[C@H](O)[C@H](O)CO [D-glucose, reference compound]",0.0132 ± 0.0001
3,"CCCCCCCCO[C@@H]1OC(CO)[C@@H](O)[C@H](O)C1O (stereo partly drawn) [compound 3, n-octyl-β-D-glucopyranoside]",0.0190 ± 0.0002
4,"CCCCCCCCO[C@@H]1OC(CO)[C@H](O)[C@H](O)C1O (stereo partly drawn) [compound 4, n-octyl-β-D-galactopyranoside]",0.0209 ± 0.0002
5,"CCCCCCCCNC(=O)[C@H](O)[C@@H](O)[C@H](O)[C@H](O)CO [compound 5, N-octyl-D-gluconamide]",0.0310 ± 0.0005

# Source: patent publication US10004222B2, “Small molecule ice recrystallization inhibitors and methods of use thereof” (THE UNIVERSITY OF OTTAWA, priority 2012, dated 2018)
